In all, about 300,000 compounds went through this assay and about 3,700 (1.2%) were called active. The shares of active, inactive and inconclusive entries below differ from those in the screen. Calls follow the shape of the full dose curve; tested in HEK293 cells. Where the call is inconclusive, the potency comes from a doubtful curve fit.
Test: qHTS for Inhibitors of binding or entry into cells for Lassa Virus; also: nearly all actives have a fitted effect of over 50% in size
Details: Lassa virus pseudotype entry inhibition, cell reporter; activity change, negative = inhibition: at 37.9 µM (top of the series) unless noted
% is scaled to controls: 0 for no effect and ±100 for the full control effect; potency is read from the fitted curve at half-maximal effect.

Structure (SMILES)	Potency	activity change, negative = inhibition
COc1cc(C(C)=O)ccc1Oc1ncnc2c1cnn2-c1cccc(Cl)c1	inconclusive: 29.1 µM [activator, single point]	
COc1ccc(-c2cc(C(=O)N(C)CC(=O)Nc3ccccc3Cl)c3ccccc3n2)cc1OC	inconclusive: 35.5 µM [inhibitor, single point]	
O=C(c1ccccc1)N1CCC(c2nc(-c3ccc(S(=O)(=O)N4CCOCC4)cc3)no2)CC1	inconclusive: 2.82 µM [inhibitor, partial curve, poor fit]	
Cc1ccc(NC(=S)N/C(=N/S(=O)(=O)c2ccccc2)c2ccccc2)cc1	inconclusive: 35.5 µM [inhibitor, single point]	
CCC(NC(=O)Nc1nnc(C(F)(F)F)s1)(C(F)(F)F)C(F)(F)F	active: 7.08 µM	
O=C(Nc1nnc(C2CC2)s1)c1cc(-c2ccccc2)nn1-c1ccccc1	inconclusive: 7.08 µM [inhibitor, partial curve, poor fit]	
COc1cccc(/C=N/Nc2nc(Nc3ccc([N+](=O)[O-])cc3)nc(N3CCCC3)n2)c1O	inconclusive: 7.08 µM [inhibitor, full curve, poor fit]	
Cc1ccnc(NC(=O)c2ccc(N3C(=O)CCC3=O)cc2)c1	inconclusive: 2.82 µM [activator, partial curve, poor fit]	
COc1ccccc1N1CCN(Cc2ccc(Br)s2)CC1	inconclusive: 1.16 µM [inhibitor, single point]	
Cc1ccc(C)c(N2CCN(c3ncnc4onc(C)c34)CC2)c1	inconclusive: 3.55 µM [inhibitor, partial curve, poor fit]	
O=C(NC1CCCC1)c1ccc(S(=O)(=O)N2CCCC2)cc1	inconclusive: 18.3 µM [inhibitor, partial curve, poor fit]	
COc1ccc(N2CC(C(=O)NCCC3=CCCCC3)CC2=O)cc1 (configuration not stated)	inconclusive: 23.1 µM [activator, partial curve, poor fit]	
c1ccc(CSc2nnnn2-c2ccccc2)cc1	inconclusive: 14.6 µM [inhibitor, partial curve, poor fit]	
COc1cccc2cc(-c3nc4sc(C(=O)Nc5ccc(F)cc5F)c(C)c4c(=O)[nH]3)c(=O)oc12		inactive: -2.71% [at 46.1 µM]
CCC(C(=O)Nc1ccc(N2CCOCC2)c(S(=O)(=O)Nc2ccccc2OC)c1)c1ccccc1 (configuration not stated)	inconclusive: 25.1 µM [inhibitor, single point]	
COC(=O)Nc1[nH]ncc1[N+](=O)[O-]		inactive: 15.5%
Cc1ccc(N=C2NC(=O)/C(=C/c3cccnc3)S2)c(C)c1	inconclusive: 7.08 µM [inhibitor, partial curve, poor fit]	

Single values from the results shown:
Potency with `CCC(NC(=O)Nc1nnc(C(F)(F)F)s1)(C(F)(F)F)C(F)(F)F` reads active: 7.08 µM
activity change, negative = inhibition with `COc1cccc2cc(-c3nc4sc(C(=O)Nc5ccc(F)cc5F)c(C)c4c(=O)[nH]3)c(=O)oc12` reads inactive: -2.71% [at 46.1 µM]

From PubChem BioAssay AID540256 (National Center for Advancing Translational Sciences (NCATS), 2011)
